{"source": "paper PMC6430831", "binders": {"B1": {"name": "human IKKε (pcDNA3-huIKKε-flag) (enzyme, UniProt Q14164 1-716)", "chain": "MQSTANYLWHTDDLLGQGATASVYKARNKKSGELVAVKVFNTTSYLRPREVQVREFEVLRKLNHQNIVKLFAVEETGGSRQKVLVMEYCSSGSLLSVLESPENAFGLPEDEFLVVLRCVVAGMNHLRENGIVHRDIKPGNIMRLVGEEGQSIYKLTDFGAARELDDDEKFVSVYGTEEYLHPDMYERAVLRKPQQKAFGVTVDLWSIGVTLYHAATGSLPFIPFGGPRRNKEIMYRITTEKPAGAIAGAQRRENGPLEWSYTLPITCQLSLGLQSQLVPILANILEVEQAKCWGFDQFFAETSDILQRVVVHVFSLSQAVLHHIYIHAHNTIAIFQEAVHKQTSVAPRHQEYLFEGHLCVLEPSVSAQHIAHTTASSPLTLFSTAIPKGLAFRDPALDVPKFVPKVDLQADYNTAKGVLGAGYQALRLARALLDGQELMFRGLHWVMEVLQATCRRTLEVARTSLLYLSSSLGTERFSSVAGTPEIQELKAAAELRSRLRTLAEVLSRCSQNITETQESLSSLNRELVKSRDQVHEDRSIQQIQCCLDKMNFIYKQFKKSRMRPGLGYNEEQIHKLDKVNFSHLAKRLLQVFQEECVQKYQASLVTHGKRMRVVHETRNHLRLVGCSVAACNTEAQGVQESLSKLLEELSHQLLQDRAKGAQASPPPIAPYPSPTRKDLLLHMQELCEGMKLLASDLLDNNRIIERLNRVPAPPDV"}}, "molecular_target": "T1, GEF-H1 (S886A) variant (human) (UniProt Q92974)", "T1 sequence": "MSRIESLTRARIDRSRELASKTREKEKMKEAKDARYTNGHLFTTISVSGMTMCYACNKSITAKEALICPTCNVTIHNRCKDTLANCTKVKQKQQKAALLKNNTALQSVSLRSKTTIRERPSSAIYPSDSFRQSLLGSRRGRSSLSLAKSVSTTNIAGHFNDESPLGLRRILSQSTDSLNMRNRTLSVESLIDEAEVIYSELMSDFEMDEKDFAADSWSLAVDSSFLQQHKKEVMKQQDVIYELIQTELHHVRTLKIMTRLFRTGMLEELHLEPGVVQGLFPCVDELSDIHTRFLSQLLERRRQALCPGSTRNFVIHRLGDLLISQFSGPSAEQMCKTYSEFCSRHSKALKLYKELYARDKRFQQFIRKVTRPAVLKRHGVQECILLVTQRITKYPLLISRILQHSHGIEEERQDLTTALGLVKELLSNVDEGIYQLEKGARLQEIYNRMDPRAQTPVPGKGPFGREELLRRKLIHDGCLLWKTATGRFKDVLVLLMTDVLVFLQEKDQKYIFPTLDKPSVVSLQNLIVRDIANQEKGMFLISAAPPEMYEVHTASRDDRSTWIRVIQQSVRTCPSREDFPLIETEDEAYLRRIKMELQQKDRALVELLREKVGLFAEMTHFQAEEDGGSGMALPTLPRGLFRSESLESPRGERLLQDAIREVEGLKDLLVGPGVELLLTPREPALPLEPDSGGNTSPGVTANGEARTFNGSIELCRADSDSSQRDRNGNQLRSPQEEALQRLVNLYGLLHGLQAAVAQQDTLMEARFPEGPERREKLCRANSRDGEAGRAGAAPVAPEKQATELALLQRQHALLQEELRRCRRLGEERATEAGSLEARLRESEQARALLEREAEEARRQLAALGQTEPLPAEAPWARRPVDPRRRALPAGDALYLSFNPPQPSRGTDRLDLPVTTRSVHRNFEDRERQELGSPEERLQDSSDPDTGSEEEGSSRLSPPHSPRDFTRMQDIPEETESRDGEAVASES", "test": "co-IP; HEK293T cells transfected with the indicated plasmids (GEF-H1 WT or variants with IRF5, IKKε, IKKβ; with or without RIPK2 or NOD2); precipitated with anti-GEF-H1, protein G agarose; lysis buffer 1% NP-40, 20 mM Tris-HCl pH 7.4, 150 mM NaCl; partners detected by western blot", "note": "These are yes or no findings as the source states them, for the method shown. Binding seen in cells or lysates may run through a third protein. Some binding calls cover weakened binding; strength is not graded here. Where a sequence is shown, tags or fusion partners need not be part of it."}
{"binder": "B1", "values": [{"measurement": "binding", "value": "binds"}]}
